Record: PubChem BioAssay AID504786 (Drosophila RNAi Screening Center, 2011)

- Assay: 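Knock-downs reducing HIF reporter induction by the iron chelator DFO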 (primary screen)
- Cell system: Drosophila S2 cells with a stable HIF luciferase reporter
- Knock-down reagent: long dsRNA against Drosophila genes, about 0.2 µg dsRNA per well of a 384-well plate
- Timing: three days of knock-down, then 20 h of DFO before reading
- Treatment: desferrioxamine (DFO) at 100 µM, an iron chelator that mimics hypoxia, for 20 h
- Read-out: 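Firefly luciferase driven by the mouse ldh-a hypoxia-response element, measured after 20 h of 100 µM DFO; z-scores per plate, higher means more signal lost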
- Reading the numbers: z-score: higher = stronger loss of HIF reporter signal
The screen tested about 21,000 reagents; this is a random part of those with a known target gene and a result. 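Primary screen; positive scores mean lost reporter signal, so the sign may be inverted from the usual convention.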 Reagents against one gene are numbered here. A plus sign joins genes that one reagent is predicted to hit. No sequences are given here.

target gene,reagent no.,"z-score, replicate 1","z-score, replicate 2","z-score, replicate 3","z-score, replicate 4"
knrl,1,-0.2,0,,
Mical,1,-0.3,0,,
Mical,2,0,-0.3,,
Mical,3,-0.4,-0.4,,
Mical,4,-0.2,0,,
Mks1,1,-0.2,0.2,,
CG14182,1,-0.3,0.1,,
Ag5r2,1,-0.2,-0.4,,
CG32248,1,0.3,0,,
CG34460,1,-0.2,0.4,,
CG12147,1,-0.2,-0.2,,
CG4554,1,0,1.1,,
Prosalpha7,1,5.8,5.3,,
Ssb-c31a,1,-0.3,-0.5,,
oc,1,-0.3,-0.4,,
CG7694,1,-1,-0.4,,
BubR1,1,0.3,0.4,,
pzg,1,0.5,-0.1,,
CG10907,1,-0.4,-0.2,,
Lip3,1,-0.4,-0.4,,
Ccp84Ae,1,-0.2,0,0.1,-0.5
CG30122,1,-0.1,0,,
CG30122,2,0.1,-1,,
stum,1,-0.3,-0.3,,
stum,2,-0.2,-0.5,,
CG1632,1,-0.4,-0.3,,
CG1632,2,-0.3,-0.6,,
Uba5,1,-0.4,-0.6,,
RpS15Ab + RpS15Aa,1,6.8,3.3,,
RpS15Ab + RpS15Aa,2,8.7,4.2,,
cno,1,-0.4,0.3,,
cno,2,1.8,4.6,,
CG34002,1,0.1,-0.5,0,0
CG34002,2,-0.4,-0.3,,
CG42710,1,0.1,-0.2,,
Taf10b,1,0.3,0.1,,
CG15207 (retired record),1,-0.3,-0.7,-0.1,-0.2
Idh3g,1,0.1,-0.5,,
Psa,1,-0.3,-0.6,,

A portion of the results above:
target gene,reagent no.,"z-score, replicate 1","z-score, replicate 2","z-score, replicate 3","z-score, replicate 4"
Mical,4,-0.2,0,,
Mks1,1,-0.2,0.2,,
CG14182,1,-0.3,0.1,,
Ag5r2,1,-0.2,-0.4,,
CG32248,1,0.3,0,,
CG34460,1,-0.2,0.4,,
CG12147,1,-0.2,-0.2,,
CG4554,1,0,1.1,,
Prosalpha7,1,5.8,5.3,,

The list goes on.
target gene,reagent no.,"z-score, replicate 1","z-score, replicate 2","z-score, replicate 3","z-score, replicate 4"
CG14891,1,-0.2,-0.6,,
spaw,1,-0.3,-0.4,,
MFS18,1,-0.2,0,,
dnt,1,-0.4,-0.3,,
eEFSec,1,1.6,1.9,,
IntS8,1,0.1,-0.2,,
Octbeta3R,1,-0.1,0.4,,
Octbeta3R,2,-0.3,-0.3,,
CG15293,1,-0.2,-0.6,,
Lcp2,1,-0.2,-0.3,,
TTLL6A,1,-0.4,-0.5,,
CG18545,1,-0.4,-0.7,,
Cpr56F,1,-0.2,-0.4,,
CG14427,1,-0.1,-0.2,,
CecB,1,-0.4,0.4,,
Eglp1,1,-0.2,0.2,,
Acat1,1,-0.2,-0.5,,
CG15756,1,-0.4,-0.4,,
Madm,1,0.8,1,,
Msr-110,1,0.1,0.6,,
CG18536,1,-0.2,-0.6,,
CG9294,1,-0.2,-0.1,,
CG9917,1,-0.2,-0.4,,
Polr3E,1,0.4,0.9,,
CG34038,1,-0.2,-0.1,,
CG15548,1,-0.5,-0.4,,
su(f),1,0.8,0.4,,
Gpo1,1,-0.2,-0.4,,
CG13123,1,0.1,0,,
Trpml + CG42638,1,-0.3,0.4,,
Camp,1,-0.4,-0.7,,
nAChRbeta3,1,-0.2,-0.2,,
CG12020,1,-0.2,-0.3,,
Eig71Ek,1,-0.3,0,,
ssx,1,1.3,2,,
Trs20,1,-0.5,-1.1,,
CG14837,1,-0.4,-0.9,,
Obp56c,1,-0.4,-0.7,0.1,0
CG13137,1,-0.2,-0.3,,
CG34011,1,-0.2,-0.4,,
Uba3,1,-0.5,-1.1,,
magu,1,-0.3,-0.5,,
CG7970,1,-0.3,-0.3,,
fng,1,-0.2,-1.3,-0.8,-0.2
fng,2,-0.3,-0.3,,
